Protein sequences, listed by entry. Tags and fused reporters are not part of them.
UniProt Q62440: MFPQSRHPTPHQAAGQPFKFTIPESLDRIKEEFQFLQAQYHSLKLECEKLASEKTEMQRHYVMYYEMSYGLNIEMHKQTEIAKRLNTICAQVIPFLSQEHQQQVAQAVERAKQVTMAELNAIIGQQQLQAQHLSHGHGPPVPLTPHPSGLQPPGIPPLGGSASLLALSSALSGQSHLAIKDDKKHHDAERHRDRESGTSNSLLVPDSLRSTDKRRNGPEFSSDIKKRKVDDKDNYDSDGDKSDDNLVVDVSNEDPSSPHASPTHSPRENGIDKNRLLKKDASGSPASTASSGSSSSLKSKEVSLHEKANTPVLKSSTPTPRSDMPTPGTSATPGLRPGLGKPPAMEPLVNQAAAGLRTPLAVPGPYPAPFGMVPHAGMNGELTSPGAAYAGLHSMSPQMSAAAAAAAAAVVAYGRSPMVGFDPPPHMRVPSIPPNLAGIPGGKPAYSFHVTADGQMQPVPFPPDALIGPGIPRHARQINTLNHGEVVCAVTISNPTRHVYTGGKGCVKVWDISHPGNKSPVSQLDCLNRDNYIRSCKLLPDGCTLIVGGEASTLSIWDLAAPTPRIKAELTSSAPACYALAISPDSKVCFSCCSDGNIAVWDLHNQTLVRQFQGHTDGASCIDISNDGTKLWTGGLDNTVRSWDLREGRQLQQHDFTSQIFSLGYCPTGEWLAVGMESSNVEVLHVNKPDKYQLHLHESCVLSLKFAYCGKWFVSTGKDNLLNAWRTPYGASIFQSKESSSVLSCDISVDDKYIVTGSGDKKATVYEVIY
UniProt Q9WVB2: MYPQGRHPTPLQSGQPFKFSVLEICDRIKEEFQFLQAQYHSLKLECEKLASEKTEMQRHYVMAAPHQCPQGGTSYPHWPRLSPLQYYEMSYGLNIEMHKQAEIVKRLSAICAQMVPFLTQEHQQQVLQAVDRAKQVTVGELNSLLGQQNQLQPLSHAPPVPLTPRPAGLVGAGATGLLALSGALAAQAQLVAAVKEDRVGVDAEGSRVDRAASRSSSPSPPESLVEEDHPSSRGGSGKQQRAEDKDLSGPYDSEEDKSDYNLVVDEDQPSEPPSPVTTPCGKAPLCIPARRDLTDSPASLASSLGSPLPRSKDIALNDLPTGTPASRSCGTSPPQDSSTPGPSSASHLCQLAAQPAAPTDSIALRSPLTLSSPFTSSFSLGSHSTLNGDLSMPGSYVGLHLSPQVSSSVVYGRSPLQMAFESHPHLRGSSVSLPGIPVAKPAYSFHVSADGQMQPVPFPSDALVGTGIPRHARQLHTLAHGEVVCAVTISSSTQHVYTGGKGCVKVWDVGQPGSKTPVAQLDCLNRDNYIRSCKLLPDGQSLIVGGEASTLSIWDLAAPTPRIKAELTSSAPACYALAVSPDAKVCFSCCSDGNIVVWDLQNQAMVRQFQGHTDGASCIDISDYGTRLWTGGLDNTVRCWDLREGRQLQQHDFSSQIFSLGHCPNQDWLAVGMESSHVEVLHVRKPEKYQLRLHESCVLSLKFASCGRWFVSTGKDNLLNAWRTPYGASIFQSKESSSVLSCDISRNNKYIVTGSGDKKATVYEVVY

According to PMC5953544:

T1: FLAG-Tbx6 (mouse) (UniProt P70327)
T1 sequence: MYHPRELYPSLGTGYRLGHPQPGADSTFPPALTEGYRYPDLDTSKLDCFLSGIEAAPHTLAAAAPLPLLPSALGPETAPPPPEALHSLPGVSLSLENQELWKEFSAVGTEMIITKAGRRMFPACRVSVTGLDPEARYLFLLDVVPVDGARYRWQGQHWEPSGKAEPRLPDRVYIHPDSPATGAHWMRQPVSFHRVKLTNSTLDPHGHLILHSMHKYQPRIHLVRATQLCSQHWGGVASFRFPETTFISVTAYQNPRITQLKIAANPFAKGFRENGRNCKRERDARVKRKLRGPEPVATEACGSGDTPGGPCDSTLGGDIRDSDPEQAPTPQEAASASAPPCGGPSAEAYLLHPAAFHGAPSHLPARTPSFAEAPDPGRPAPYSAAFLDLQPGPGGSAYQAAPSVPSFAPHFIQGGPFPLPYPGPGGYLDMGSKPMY

B1: Myc-Ripply2 (protein, UniProt Q2WG76 1-128)
chain: MDTTESAESAHNPARPPSRSRCPPSAQPGSEGFWRPWVRTPGEKEKRTGPRAAEALPSGPGMAEASGKLLQYQHPVRLFWPKSKCYDYLYQEAETLLKNFPIQATISFYEDSDSEDEIEGLACENQSN
B2: His-Ripply2 (protein, UniProt Q2WG76 1-128)
chain: B1 chain

Legend:
[1] = molecular target: FLAG-TLE1 (mouse) (UniProt Q62440); assay: co-IP; HEK293T cells co-transfected with a FLAG-tagged and a Myc-tagged construct; lysis in 50 mM Tris-HCl pH 7.4, 150 mM NaCl, 1 mM EDTA, 0.5% NP-40, 1 mM DTT; anti-FLAG M2 affinity gel at 4°C; blots with anti-FLAG and anti-Myc
[2] = molecular target: FLAG-TLE2 (UniProt Q9WVB2); assay: as above
[3] = molecular target: T1, FLAG-Tbx6 (mouse); assay: as above
[4] = molecular target: FLAG-Tbx6_(Δ124~152) (mouse) (UniProt P70327); assay: as above
[5] = molecular target: FLAG-Tbx6_(ΔT-box) (mouse); assay: as above
[6] = molecular target: GST-Tbx6_(Δ124-152aa) (mouse) (UniProt P70327); assay: pull-down; supernatant of sonicated E. coli with GST or GST-Tbx6 (or mutant) mixed with purified His-Ripply2 and glutathione-sepharose 4FF, 2 hr; 25 mM HEPES-KOH pH 7.4, 150 mM NaCl, 0.1% NP-40, 1 mM DTT, 1 mM EDTA; blot with anti-Ripply2 (and anti-His); only the binder purified

| Molecule | binding [1] | binding [2] | binding [3] | binding [4] | binding [5] | binding [6] |
| --- | --- | --- | --- | --- | --- | --- |
| Myc-Ripply2_(ΔFPIQ) (from UniProt Q2WG76) | binds | binds | no binding |  |  |  |
| Myc-Ripply2_(ΔWRPW) (from UniProt Q2WG76) | no binding | no binding | no binding |  |  |  |
| B1 |  |  |  | binds | no binding |  |
| B2 |  |  |  |  |  | binds |

These are yes or no findings as the source states them, for the method shown. In cells and extracts the contact can be indirect. For part of these data: Binding can be weak; no strength is given. For part of these data: Where a sequence is shown, tags or fusion partners need not be part of it.
